Source: publication PMC10174503
These are yes or no findings as the source states them, for the method shown. In cells and extracts the contact can be indirect. Here binding means that the protein was enriched with, or labelled near, the bait; the list need not be complete.

The chains behind the UniProt entries cited, without tags or fusion partners.
UniProt Q9EPU0: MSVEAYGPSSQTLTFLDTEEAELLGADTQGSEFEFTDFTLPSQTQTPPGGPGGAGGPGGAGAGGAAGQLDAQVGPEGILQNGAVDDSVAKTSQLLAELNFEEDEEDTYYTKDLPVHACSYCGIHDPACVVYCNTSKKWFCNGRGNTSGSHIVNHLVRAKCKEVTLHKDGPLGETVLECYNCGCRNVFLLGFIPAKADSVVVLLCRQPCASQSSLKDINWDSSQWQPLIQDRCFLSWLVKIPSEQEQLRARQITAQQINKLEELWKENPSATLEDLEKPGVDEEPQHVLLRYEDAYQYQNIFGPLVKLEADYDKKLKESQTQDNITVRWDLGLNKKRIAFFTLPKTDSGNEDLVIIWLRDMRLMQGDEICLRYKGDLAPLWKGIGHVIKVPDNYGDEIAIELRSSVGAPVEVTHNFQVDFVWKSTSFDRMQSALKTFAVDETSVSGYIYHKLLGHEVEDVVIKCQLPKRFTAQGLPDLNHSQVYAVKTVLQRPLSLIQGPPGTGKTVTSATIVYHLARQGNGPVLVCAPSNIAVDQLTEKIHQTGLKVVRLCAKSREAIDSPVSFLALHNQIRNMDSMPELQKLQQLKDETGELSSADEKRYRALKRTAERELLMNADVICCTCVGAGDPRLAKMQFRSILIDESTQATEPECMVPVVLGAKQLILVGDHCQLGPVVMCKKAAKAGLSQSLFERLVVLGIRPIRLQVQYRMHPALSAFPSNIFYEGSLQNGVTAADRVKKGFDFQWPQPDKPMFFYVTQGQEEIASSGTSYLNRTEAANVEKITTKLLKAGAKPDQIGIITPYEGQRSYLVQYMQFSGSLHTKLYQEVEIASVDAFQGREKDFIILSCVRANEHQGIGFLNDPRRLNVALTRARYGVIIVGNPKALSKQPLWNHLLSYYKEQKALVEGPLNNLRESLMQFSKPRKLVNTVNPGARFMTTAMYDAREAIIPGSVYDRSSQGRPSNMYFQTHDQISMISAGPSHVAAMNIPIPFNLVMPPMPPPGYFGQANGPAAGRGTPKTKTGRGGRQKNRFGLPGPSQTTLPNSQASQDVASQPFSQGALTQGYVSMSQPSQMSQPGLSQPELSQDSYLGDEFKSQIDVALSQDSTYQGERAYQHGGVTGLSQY

Molecular target: T1, MOV10 (Moloney leukemia virus 10) RNA helicase (mouse (endogenous in testis)) (UniProt P23249)
T1 sequence: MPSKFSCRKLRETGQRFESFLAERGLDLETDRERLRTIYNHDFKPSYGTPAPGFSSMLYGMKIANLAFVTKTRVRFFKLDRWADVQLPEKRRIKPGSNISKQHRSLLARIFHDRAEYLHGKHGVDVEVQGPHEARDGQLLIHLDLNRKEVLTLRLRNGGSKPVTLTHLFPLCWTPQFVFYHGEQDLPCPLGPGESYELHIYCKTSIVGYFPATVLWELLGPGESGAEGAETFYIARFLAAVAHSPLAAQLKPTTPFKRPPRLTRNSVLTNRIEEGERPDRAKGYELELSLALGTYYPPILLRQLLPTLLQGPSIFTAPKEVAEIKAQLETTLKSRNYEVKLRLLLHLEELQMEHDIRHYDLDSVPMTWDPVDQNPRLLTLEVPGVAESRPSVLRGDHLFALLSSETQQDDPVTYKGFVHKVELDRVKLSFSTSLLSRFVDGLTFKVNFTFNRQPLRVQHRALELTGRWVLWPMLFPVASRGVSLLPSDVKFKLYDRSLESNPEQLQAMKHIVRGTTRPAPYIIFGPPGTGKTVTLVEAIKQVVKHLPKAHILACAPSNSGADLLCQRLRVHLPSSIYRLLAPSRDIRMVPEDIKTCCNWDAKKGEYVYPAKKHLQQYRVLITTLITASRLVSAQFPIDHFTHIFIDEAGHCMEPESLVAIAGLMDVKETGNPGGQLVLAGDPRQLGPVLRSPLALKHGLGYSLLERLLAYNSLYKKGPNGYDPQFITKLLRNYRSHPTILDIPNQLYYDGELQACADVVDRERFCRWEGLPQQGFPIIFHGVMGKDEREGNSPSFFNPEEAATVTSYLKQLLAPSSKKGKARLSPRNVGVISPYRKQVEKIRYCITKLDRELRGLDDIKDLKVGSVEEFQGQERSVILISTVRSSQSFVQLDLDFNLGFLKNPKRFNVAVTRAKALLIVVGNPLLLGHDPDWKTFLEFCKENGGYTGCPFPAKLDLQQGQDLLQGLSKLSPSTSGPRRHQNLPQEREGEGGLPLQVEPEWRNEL
Assay: affinity purification with mass spectrometry; IP of mouse testis lysate (RIPA buffer) with anti-MOV10 antibody on protein G Dynabeads; Coomassie-stained bands present in the MOV10 lane and absent in the IgG lane identified by mass spectrometry

- binding: binds
Substance: UPF1 (from UniProt Q9EPU0 1-1124)
